The data set has as its system VSVD51.

vanadium (IV) citrate [CDOS139]: the “Viral titers recovered after admixing (in words)” value is on record as “improved or similar to the control”.
Under vanadium (V) citrate [CDOS140] stands “improved or similar to the control”.

For the origin of these results see US20240293352A1 (priority 2021, published 2024).
